Measured values from publication PMC5504347.
No constants are given. Whether binding was seen depends on the method and setting. For part of these data: In cells and extracts the contact can be indirect. Some results given as binding are weak or reduced against the parent protein; the word gives no strength. For part of these data: Sequences can lack the tags named with a protein.

By UniProt entry, the sequences of proteins in these tests, tags left out. Where a name states a change or a piece, a line headed by the entry shows the natural chain unless it says otherwise. Chains listed by the source or under a name are the forms on record and can include a tag or linker.
UBE2D3 (E2 ubiquitin ligase) (P61077-2, form named): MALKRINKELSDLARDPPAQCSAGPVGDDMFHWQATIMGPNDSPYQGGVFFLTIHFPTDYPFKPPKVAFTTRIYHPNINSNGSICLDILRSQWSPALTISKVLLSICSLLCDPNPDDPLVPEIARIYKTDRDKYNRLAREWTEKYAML

Tests used:
[1] = target: T1, ΔRING mutant (aa 81–904) of ZNF598 (human) (UniProt Q86UK7); experiment: SEC; cell lysate on Superose 6 (24 ml) in 25 mM HEPES-KOH pH 7.4, 150 mM KCl, 75 mM KOAc, 2 mM MgCl2, 0.5% NP40; fractions analysed by blot
T1 sequence: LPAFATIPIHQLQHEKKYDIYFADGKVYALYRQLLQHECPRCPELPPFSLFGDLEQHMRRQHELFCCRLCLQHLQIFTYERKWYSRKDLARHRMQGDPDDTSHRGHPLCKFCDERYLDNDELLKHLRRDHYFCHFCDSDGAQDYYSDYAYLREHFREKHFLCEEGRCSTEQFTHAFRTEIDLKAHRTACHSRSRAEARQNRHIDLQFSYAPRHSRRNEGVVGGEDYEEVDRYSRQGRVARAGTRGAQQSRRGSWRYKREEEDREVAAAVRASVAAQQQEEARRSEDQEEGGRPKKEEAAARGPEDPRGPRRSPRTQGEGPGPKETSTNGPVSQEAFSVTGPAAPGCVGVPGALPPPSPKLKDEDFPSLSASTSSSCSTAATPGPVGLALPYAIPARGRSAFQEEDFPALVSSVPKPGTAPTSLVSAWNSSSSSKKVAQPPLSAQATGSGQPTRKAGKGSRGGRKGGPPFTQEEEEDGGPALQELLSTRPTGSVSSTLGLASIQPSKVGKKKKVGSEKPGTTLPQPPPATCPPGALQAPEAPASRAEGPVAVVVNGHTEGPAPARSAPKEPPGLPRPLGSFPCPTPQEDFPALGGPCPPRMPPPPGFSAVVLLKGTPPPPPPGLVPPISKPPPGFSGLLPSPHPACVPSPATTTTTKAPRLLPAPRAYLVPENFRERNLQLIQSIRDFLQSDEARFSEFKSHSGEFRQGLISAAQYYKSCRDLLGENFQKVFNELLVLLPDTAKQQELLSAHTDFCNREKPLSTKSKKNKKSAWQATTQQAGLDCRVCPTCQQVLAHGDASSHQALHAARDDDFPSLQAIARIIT

[2] = target: T2, 3xFlag-ZNF598 (Zinc Finger Protein 598) (human) (UniProt Q86UK7); experiment: as above
T2 sequence: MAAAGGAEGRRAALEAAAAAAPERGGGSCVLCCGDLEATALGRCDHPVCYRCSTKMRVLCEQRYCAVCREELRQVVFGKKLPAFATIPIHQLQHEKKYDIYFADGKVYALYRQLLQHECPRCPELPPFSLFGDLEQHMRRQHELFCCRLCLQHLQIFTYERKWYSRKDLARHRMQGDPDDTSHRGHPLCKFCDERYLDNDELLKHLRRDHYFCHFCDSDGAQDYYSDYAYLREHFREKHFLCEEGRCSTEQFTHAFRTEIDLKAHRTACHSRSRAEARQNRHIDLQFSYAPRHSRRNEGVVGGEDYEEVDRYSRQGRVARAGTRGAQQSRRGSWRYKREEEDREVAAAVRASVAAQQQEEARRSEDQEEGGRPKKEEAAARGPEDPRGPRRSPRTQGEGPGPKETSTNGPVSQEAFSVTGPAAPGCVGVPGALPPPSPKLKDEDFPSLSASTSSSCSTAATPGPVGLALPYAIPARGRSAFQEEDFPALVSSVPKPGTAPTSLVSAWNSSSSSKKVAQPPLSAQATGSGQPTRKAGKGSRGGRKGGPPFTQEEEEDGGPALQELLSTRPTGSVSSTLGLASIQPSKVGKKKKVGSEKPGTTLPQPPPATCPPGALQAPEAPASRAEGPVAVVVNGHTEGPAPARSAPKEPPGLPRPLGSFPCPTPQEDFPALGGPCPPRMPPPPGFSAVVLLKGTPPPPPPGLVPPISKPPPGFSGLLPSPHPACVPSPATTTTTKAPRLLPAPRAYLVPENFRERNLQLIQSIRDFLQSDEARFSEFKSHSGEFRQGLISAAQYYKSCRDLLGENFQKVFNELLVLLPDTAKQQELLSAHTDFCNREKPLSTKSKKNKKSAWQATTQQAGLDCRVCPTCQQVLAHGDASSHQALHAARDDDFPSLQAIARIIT

[3] = target: T2, 3xFlag-ZNF598 (Zinc Finger Protein 598) (human); experiment: co-IP; anti-Flag M2 antibody and protein G agarose on lysate of Flp-In T-REx 293 cells transiently transfected with 3xFlag-ZNF598 or empty vector; 0.3% CHAPS, 120 mM NaCl, RNase A 10 μg/ml; western blot

binding [1]: no binding
binding [2]: binds
binding [3]: binds
Substance: UBE2D3 (E2 ubiquitin ligase) (from UniProt P61077-2 1-148) (enzyme)
